# Reference: the supplement of paper PMC8728848
# Some of the results follow.
# Legend:
# Assay in all cases: glycan array binding signal (z-score within array); higher = stronger binding
# Settings in all cases: glycan notation: IUPAC condensed, linker removed
# Fuc(a1-2)Gal = biological target: Fuc(a1-2)Gal
# How it was run: (§1)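 Columns mapping to the same glycan were averaged after glycan names were converted to IUPAC-condensed notation. The data come from 3228 arrays in the Consortium for Functional Glycomics database, limited to those with an available protein sequence. Binding is reported as a within-array Z-score averaged across arrays of one protein sequence and across linkers.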
# Fuc(a1-2)Gal(b1-3)GalNAc = biological target: Fuc(a1-2)Gal(b1-3)GalNAc
# How it was run: as §1
# [1] = biological target: Fuc(a1-2)Gal(b1-3)GalNAc(a1-3)[Fuc(a1-2)]Gal(b1-4)Glc
# How it was run: as §1
# [2] = biological target: Fuc(a1-2)Gal(b1-3)GalNAc(a1-3)[Fuc(a1-2)]Gal(b1-4)GlcNAc
# How it was run: as §1
# [3] = biological target: Fuc(a1-2)Gal(b1-3)GalNAc(b1-3)Gal
# How it was run: as §1
# [4] = biological target: Fuc(a1-2)Gal(b1-3)GalNAc(b1-3)Gal(a1-4)Gal(b1-4)Glc
# How it was run: as §1
# [5] = biological target: Fuc(a1-2)Gal(b1-3)GalNAc(b1-4)[Neu5Ac(a2-3)]Gal(b1-4)Glc
# How it was run: as §1
# Fuc(a1-2)Gal(b1-3)GlcNAc = biological target: Fuc(a1-2)Gal(b1-3)GlcNAc
# How it was run: as §1
# [6] = biological target: Fuc(a1-2)Gal(b1-3)GlcNAc(b1-2)Man(a1-3)[Fuc(a1-2)Gal(b1-3)GlcNAc(b1-2)Man(a1-6)]Man(b1-4)GlcNAc(b1-4)GlcNAc
# How it was run: as §1
# [7] = biological target: Fuc(a1-2)Gal(b1-3)GlcNAc(b1-2)Man(a1-3)[Fuc(a1-2)Gal(b1-3)GlcNAc(b1-2)Man(a1-6)]Man(b1-4)GlcNAc(b1-4)[Fuc(a1-6)]GlcNAc
# How it was run: as §1
# [8] = biological target: Fuc(a1-2)Gal(b1-3)GlcNAc(b1-3)Gal(b1-4)Glc
# How it was run: as §1
# [9] = biological target: Fuc(a1-2)Gal(b1-3)GlcNAc(b1-3)GalNAc
# How it was run: as §1
# [10] = biological target: Fuc(a1-2)Gal(b1-3)GlcNAc(b1-3)[Fuc(a1-2)Gal(b1-3)GlcNAc(b1-6)]GalNAc
# How it was run: as §1
# [11] = biological target: Fuc(a1-2)Gal(b1-3)GlcNAc(b1-3)[Gal(b1-4)GlcNAc(b1-6)]Gal(b1-4)Glc
# How it was run: as §1
# [12] = biological target: Fuc(a1-2)Gal(b1-3)GlcNAc(b1-3)[Neu5Ac(a2-6)Gal(b1-4)GlcNAc(b1-6)]Gal(b1-4)Glc
# How it was run: as §1
# [13] = biological target: Fuc(a1-2)Gal(b1-3)GlcNAc6S
# How it was run: as §1
# [14] = biological target: Fuc(a1-2)Gal(b1-3)[Fuc(a1-4)]GlcNAc
# How it was run: as §1
# [15] = biological target: Fuc(a1-2)Gal(b1-3)[Fuc(a1-4)]GlcNAc(b1-2)Man(a1-3)[Fuc(a1-2)Gal(b1-3)[Fuc(a1-4)]GlcNAc(b1-2)Man(a1-3)]Man(b1-4)GlcNAc(b1-4)GlcNAc
# How it was run: as §1
# [16] = biological target: Fuc(a1-2)Gal(b1-3)[Fuc(a1-4)]GlcNAc(b1-2)Man(a1-3)[Fuc(a1-2)Gal(b1-3)[Fuc(a1-4)]GlcNAc(b1-2)Man(a1-6)]Man(b1-4)GlcNAc(b1-4)[Fuc(a1-6)]GlcNAc(b1-4)[Fuc(a1-6)]GlcNAc
# How it was run: as §1
# [17] = biological target: Fuc(a1-2)Gal(b1-3)[Fuc(a1-4)]GlcNAc(b1-3)[Fuc(a1-3)[Gal(b1-4)]GlcNAc(b1-6)]Gal(b1-4)Glc
# How it was run: as §1
# [18] = biological target: Fuc(a1-2)Gal(b1-3)[Fuc(a1-4)]GlcNAc(b1-3)[Gal(b1-4)GlcNAc(b1-6)]Gal(b1-4)Glc
# How it was run: as §1
# [19] = biological target: Fuc(a1-2)Gal(b1-4)Fuc(a1-3)]GlcNAc(b1-2)Man(a1-3)[Fuc(a1-2)Gal(b1-4)[Fuc(a1-3)]GlcNAc(b1-2)Man(a1-6)]Man(b1-4)GlcNAc(b1-4)GlcNAc
# How it was run: as §1
# Fuc(a1-2)Gal(b1-4)Glc = biological target: Fuc(a1-2)Gal(b1-4)Glc
# How it was run: as §1
# Fuc(a1-2)Gal(b1-4)Glc6S = biological target: Fuc(a1-2)Gal(b1-4)Glc6S
# How it was run: as §1
# Fuc(a1-2)Gal(b1-4)GlcNAc = biological target: Fuc(a1-2)Gal(b1-4)GlcNAc
# How it was run: as §1
# [20] = biological target: Fuc(a1-2)Gal(b1-4)GlcNAc(b1-2)Man
# How it was run: as §1
# [21] = biological target: Fuc(a1-2)Gal(b1-4)GlcNAc(b1-2)Man(a1-3)[Fuc(a1-2)Gal(b1-4)GlcNAc(b1-2)Man(a1-6)]Man(b1-4)GlcNAc(b1-4)GlcNAc
# How it was run: as §1
# [22] = biological target: Fuc(a1-2)Gal(b1-4)GlcNAc(b1-2)Man(a1-3)[Fuc(a1-2)Gal(b1-4)GlcNAc(b1-2)Man(a1-6)]Man(b1-4)GlcNAc(b1-4)[Fuc(a1-6)]GlcNAc
# How it was run: as §1
# [23] = biological target: Fuc(a1-2)Gal(b1-4)GlcNAc(b1-2)[Fuc(a1-2)Gal(b1-4)GlcNAc(b1-4)]Man(a1-3)[Fuc(a1-2)Gal(b1-4)GlcNAc(b1-2)Man(a1-6)]Man(b1-4)GlcNAc(b1-4)GlcNAc
# How it was run: as §1
# [24] = biological target: Fuc(a1-2)Gal(b1-4)GlcNAc(b1-3)Gal(b1-4)GlcNAc
# How it was run: as §1
# [25] = biological target: Fuc(a1-2)Gal(b1-4)GlcNAc(b1-3)Gal(b1-4)GlcNAc(b1-2)Man(a1-3)[Fuc(a1-2)Gal(b1-4)GlcNAc(b1-3)Gal(b1-4)GlcNAc(b1-2)Man(a1-6)]Man(b1-4)GlcNAc(b1-4)GlcNAc
# How it was run: as §1
# [26] = biological target: Fuc(a1-2)Gal(b1-4)GlcNAc(b1-3)Gal(b1-4)GlcNAc(b1-3)Gal(b1-4)GlcNAc
# How it was run: as §1
# [27] = biological target: Fuc(a1-2)Gal(b1-4)GlcNAc(b1-3)GalNAc
# How it was run: as §1
# [28] = biological target: Fuc(a1-2)Gal(b1-4)GlcNAc(b1-3)[Fuc(a1-2)Gal(b1-4)GlcNAc(b1-6)]GalNAc
# How it was run: as §1
# [29] = biological target: Fuc(a1-2)Gal(b1-4)GlcNAc(b1-3)[Fuc(a1-3)[Gal(b1-4)]GlcNAc(b1-6)]Gal(b1-4)Glc
# How it was run: as §1
# [30] = biological target: Fuc(a1-2)Gal(b1-4)GlcNAc(b1-6)GalNAc
# How it was run: as §1
# [31] = biological target: Fuc(a1-2)Gal(b1-4)GlcNAc6S
# How it was run: as §1
binder,measurement,setting,value
"Protein L(B1-B4) (Finegoldia magna), Q51912 (protein) KEETPETPETDSEEEVTIKANLIFANGSTQTAEFKGTFEKATSEAYAYADTLKKDNGEYTVDVADKGYTLNIKFAGKEKTPEEPKEEVTIKANLIYADGKTQTAEFKGTFEEATAEAYRYADALKKDNGEYTVDVADKGYTLNIKFAGKEKTPEEPKEEVTIKANLIYADGKTQTAEFKGTFEEATAEAYRYADLLAKENGKYTVDVADKGYTLNIKFAGKEKTPEEPKEEVTIKANLIYADGKTQTAEFKGTFAEATAEAYRYADLLAKENGKYTADLEDGGYTINIRFAG",glycan array binding signal (z-score),Fuc(a1-2)Gal,-0.829
same,glycan array binding signal (z-score),Fuc(a1-2)Gal(b1-3)GalNAc,-0.021
same,glycan array binding signal (z-score),[1],1.12
same,glycan array binding signal (z-score),[2],0.034
same,glycan array binding signal (z-score),[3],0.572
same,glycan array binding signal (z-score),[4],-0.827
same,glycan array binding signal (z-score),[5],-0.407
same,glycan array binding signal (z-score),Fuc(a1-2)Gal(b1-3)GlcNAc,-0.817
same,glycan array binding signal (z-score),[6],-0.445
same,glycan array binding signal (z-score),[7],-0.466
same,glycan array binding signal (z-score),[8],-0.618
same,glycan array binding signal (z-score),[9],0.917
same,glycan array binding signal (z-score),[10],2.77
same,glycan array binding signal (z-score),[11],-0.957
same,glycan array binding signal (z-score),[12],-0.274
same,glycan array binding signal (z-score),[13],-0.304
same,glycan array binding signal (z-score),[14],-0.294
same,glycan array binding signal (z-score),[15],1.93
same,glycan array binding signal (z-score),[16],0.958
same,glycan array binding signal (z-score),[17],-0.425
same,glycan array binding signal (z-score),[18],-0.528
same,glycan array binding signal (z-score),[19],1.7
same,glycan array binding signal (z-score),Fuc(a1-2)Gal(b1-4)Glc,-0.438
same,glycan array binding signal (z-score),Fuc(a1-2)Gal(b1-4)Glc6S,-0.701
same,glycan array binding signal (z-score),Fuc(a1-2)Gal(b1-4)GlcNAc,-0.438
same,glycan array binding signal (z-score),[20],-0.448
same,glycan array binding signal (z-score),[21],1.14
same,glycan array binding signal (z-score),[22],-0.565
same,glycan array binding signal (z-score),[23],2.47
same,glycan array binding signal (z-score),[24],-0.882
same,glycan array binding signal (z-score),[25],0.858
same,glycan array binding signal (z-score),[26],1.14
same,glycan array binding signal (z-score),[27],1.03
same,glycan array binding signal (z-score),[28],1.03
same,glycan array binding signal (z-score),[29],-0.897
same,glycan array binding signal (z-score),[30],1.04
same,glycan array binding signal (z-score),[31],-0.503

# In another format: entries from further up
binder | measurement | setting | value
Protein L(B1-B4) (Finegoldia magna), Q51912 (protein) KEETPETPETDSEEEVTIKANLIFANGSTQTAEFKGTFEKATSEAYAYADTLKKDNGEYTVDVADKGYTLNIKFAGKEKTPEEPKEEVTIKANLIYADGKTQTAEFKGTFEEATAEAYRYADALKKDNGEYTVDVADKGYTLNIKFAGKEKTPEEPKEEVTIKANLIYADGKTQTAEFKGTFEEATAEAYRYADLLAKENGKYTVDVADKGYTLNIKFAGKEKTPEEPKEEVTIKANLIYADGKTQTAEFKGTFAEATAEAYRYADLLAKENGKYTADLEDGGYTINIRFAG | glycan array binding signal (z-score) | [23] | 2.47
same | glycan array binding signal (z-score) | [25] | 0.858
